PubChem BioAssay AID652243 – Drosophila RNAi Screening Center, 2013
In all, the deposit lists about 24,000 reagents; below is a random part of those with a known target gene and a result. Of all reagents, 246 (1%) got an active call. 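Plates not normalised; calls are printed but the firefly/Renilla ratio behind them is not deposited; fold cut for lowering reported inconsistently.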 Raw values are not corrected between plates. Reagents against one gene are numbered here. Names joined by + are all predicted targets of the reagent. Not given: the amount of reagent.

- Assay: 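Knock-downs that decrease or increase androgen receptor reporter signal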 (primary screen)
- Cell system: Drosophila S2R+ cells
- Reagents: long dsRNA against Drosophila genes
- Duration: 72 h (48 h, then 24 h hormone)
- Challenge: synthetic androgen R1881 at 10 nM for 24 h
- Measurement: 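Firefly light from an androgen-responsive reporter and Renilla control light per well, raw and unnormalised, for each of two replicates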
- Reading the numbers: firefly reporter light: higher = more light from androgen-responsive reporter; Renilla control light: higher = more constitutive control signal (cell number, transfection)
- Hit rule: 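Across duplicate plates, a knock-down whose log firefly/Renilla ratio shifted a set fold down or up from the GFP/LacZ control mean was a hit; the downward cut appears as both 1.5 and 3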
- Calls: active = hit: reporter lowered or raised; inactive = no hit

gene,dsRNA no.,"firefly reporter light, replicate 1","firefly reporter light, replicate 2","Renilla control light, replicate 1","Renilla control light, replicate 2",outcome
CG5214,1,1.65e5,1.45e5,2.82e6,2.33e6,active
CG5214,2,4.96e5,7.81e5,9.86e5,1.05e6,inactive
CG5214,3,8.43e5,8.27e5,7.53e5,8.07e5,inactive
Ntan1,1,85520,1.25e5,1.20e6,1.10e6,inactive
Topors,1,7.00e5,6.43e5,1.00e6,8.59e5,inactive
CG5715,1,1.53e5,1.27e5,1.74e6,1.71e6,inactive
CG5715,2,4.23e5,4.47e5,8.52e5,7.19e5,inactive
twz,1,2.65e5,2.35e5,1.42e6,8.58e5,inactive
twz,2,3.42e5,4.04e5,1.16e6,9.64e5,inactive
Hr78,1,12473,16900,2.36e5,1.87e5,inactive
Hr78,2,5.24e5,3.60e5,1.93e6,1.40e6,inactive
Fatp (retired record),1,1.10e6,1.64e6,1.34e6,2.54e6,inactive
CkIIbeta,1,2.93e5,3.87e5,2.81e6,2.96e6,inactive
18w,1,8.28e5,6.07e5,1.94e6,1.23e6,inactive
18w,2,4.15e5,2.84e5,1.22e6,9.60e5,inactive
eIF3k,1,9.08e5,8.80e5,2.36e6,3.05e6,inactive
eIF3k,2,5.97e5,5.00e5,7.18e5,9.08e5,inactive
CG31752,1,9.94e5,7.75e5,1.84e6,1.43e6,inactive
BoYb,1,59630,61599,4.52e5,4.12e5,inactive

Active calls, among the entries above:
gene,dsRNA no.,"firefly reporter light, replicate 1","firefly reporter light, replicate 2","Renilla control light, replicate 1","Renilla control light, replicate 2",outcome
CG5214,1,1.65e5,1.45e5,2.82e6,2.33e6,active

The listing continues:
gene,dsRNA no.,"firefly reporter light, replicate 1","firefly reporter light, replicate 2","Renilla control light, replicate 1","Renilla control light, replicate 2",outcome
fw,1,5.11e5,5.86e5,3.59e6,2.80e6,inactive
fw,2,3.26e5,2.95e5,8.22e5,6.48e5,inactive
ND-49L,1,1.86e5,1.90e5,2.08e6,2.04e6,inactive
ND-49L,2,9.00e5,5.46e5,2.62e6,1.77e6,inactive
Uba4,1,1.93e5,1.79e5,1.46e6,1.61e6,inactive
Uba4,2,7.61e5,6.33e5,2.36e6,1.36e6,inactive
CG13806,1,76480,1.14e5,1.01e6,1.26e6,inactive
CR9337,1,1.28e6,6.23e5,2.91e6,2.33e6,inactive
CR9337,2,4.53e5,4.86e5,2.03e6,1.92e6,inactive
CG15914,1,5.16e5,4.78e5,4.44e6,3.42e6,inactive
Rcd1,1,4.46e5,4.92e5,87403,1.24e5,inactive
Rcd1,2,1.02e6,9.26e5,1.29e5,1.22e5,inactive
CG14982,1,8.06e5,8.68e5,4.56e5,7.24e5,inactive
CG10927,1,9.64e5,1.10e6,2.96e6,2.69e6,inactive
CG10927,2,3.25e5,5.06e5,9.75e5,1.39e6,inactive
Rab18,1,59105,83316,6.24e5,4.56e5,inactive
Rab18,2,2.44e5,1.85e5,6.16e5,5.90e5,inactive
CG6928,1,7.36e5,8.72e5,1.29e6,1.49e6,inactive
CR13656,1,52753,79303,1.38e5,1.16e5,inactive
CR13656,2,2.21e5,2.20e5,2.72e6,2.76e6,inactive
Ir7c,1,2.36e5,2.60e5,2.04e6,2.32e6,inactive
beat-VI,1,2.35e5,1.99e5,2.95e6,2.96e6,inactive
beat-VI,2,1.34e5,1.25e5,1.96e6,1.84e6,inactive
Zdhhc8,1,38238,33821,4.47e5,5.25e5,inactive
Zdhhc8,2,1.96e5,3.40e5,2.98e6,3.02e6,inactive
eIF2gamma + Su(var)3-9,1,57367,92085,93513,2.33e5,inactive
eIF2gamma + Su(var)3-9,2,1.05e5,74115,7.12e5,8.51e5,inactive
eIF2gamma + Su(var)3-9,3,4.04e5,3.22e5,5.83e5,7.12e5,inactive
CG12128,1,1.12e6,1.07e6,2.27e6,2.59e6,inactive
CG12128,2,8.60e5,7.70e5,1.08e6,1.31e6,inactive
Xxylt,1,9.84e5,8.41e5,9.60e5,1.17e6,inactive
CG33230,1,6.42e5,8.19e5,1.11e6,1.19e6,inactive
CG33189,1,6.59e5,7.49e5,2.32e6,2.06e6,inactive
CG33189,2,2.88e5,2.74e5,8.65e5,9.05e5,inactive
CG13131,1,6.13e5,5.72e5,1.68e6,1.37e6,inactive
Xport-A + Xport-B,1,52713,70050,7.43e5,7.99e5,inactive
Ets96B,1,1.40e5,1.99e5,1.52e6,2.70e6,inactive
Ets96B,2,5.33e5,5.51e5,5.20e5,5.19e5,inactive
glo,1,84210,98343,2.18e6,2.13e6,inactive
glo,2,2.25e5,1.75e5,6.21e5,8.36e5,inactive
